The list shows a part of the results.
Assays:
Test in all cases: glycan array binding signal (z-score within array); higher = stronger binding
Details in all cases: glycan notation: IUPAC condensed, linker removed
Neu5Ac(a2-3)Gal(b1-4)Glc = target: Neu5Ac(a2-3)Gal(b1-4)Glc
Summary of the method: (§1)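 The binding signal is a Z-score computed within each array and averaged over linkers. Arrays of the same protein sequence at different concentrations or buffers were also averaged together. Data originate from 3228 arrays in the Consortium for Functional Glycomics database, kept only where the protein sequence was available.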

[1] = target: Neu5Ac(a2-3)Gal(b1-4)GlcNAc
Summary of the method: as §1

[2] = target: Neu5Ac(a2-3)Gal(b1-4)GlcNAc(b1-2)Man
Summary of the method: as §1

[3] = target: Neu5Ac(a2-3)Gal(b1-4)GlcNAc(b1-2)Man(a1-3)[GlcNAc(b1-4)][Neu5Ac(a2-3)Gal(b1-4)GlcNAc(b1-2)Man(a1-6)]Man(b1-4)GlcNAc(b1-4)GlcNAc
Summary of the method: as §1

[4] = target: Neu5Ac(a2-3)Gal(b1-4)GlcNAc(b1-2)Man(a1-3)[Neu5Ac(a2-3)Gal(b1-4)GlcNAc(b1-2)Man(a1-6)]Man(b1-4)GlcNAc(b1-4)GlcNAc
Summary of the method: as §1

[5] = target: Neu5Ac(a2-3)Gal(b1-4)GlcNAc(b1-2)Man(a1-3)[Neu5Ac(a2-3)Gal(b1-4)GlcNAc(b1-2)Man(a1-6)]Man(b1-4)GlcNAc(b1-4)[Fuc(a1-6)]GlcNAc
Summary of the method: as §1

[6] = target: Neu5Ac(a2-3)Gal(b1-4)GlcNAc(b1-2)Man(a1-3)[Neu5Ac(a2-6)Gal(b1-4)GlcNAc(b1-2)Man(a1-6)]Man(b1-4)GlcNAc(b1-4)GlcNAc
Summary of the method: as §1

[7] = target: Neu5Ac(a2-3)Gal(b1-4)GlcNAc(b1-2)[Neu5Ac(a2-3)Gal(b1-4)GlcNAc(b1-4)]Man(a1-3)[GlcNAc(b1-4)][Neu5Ac(a2-3)Gal(b1-4)GlcNAc(b1-2)[Neu5Ac(a2-3)Gal(b1-4)GlcNAc(b1-6)]Man(a1-6)]Man(b1-4)GlcNAc(b1-4)GlcNAc
Summary of the method: as §1

[8] = target: Neu5Ac(a2-3)Gal(b1-4)GlcNAc(b1-2)[Neu5Ac(a2-3)Gal(b1-4)GlcNAc(b1-4)]Man(a1-3)[GlcNAc(b1-4)][Neu5Ac(a2-3)Gal(b1-4)GlcNAc(b1-4)Man(a1-6)]Man(b1-4)GlcNAc(b1-4)GlcNAc
Summary of the method: as §1

[9] = target: Neu5Ac(a2-3)Gal(b1-4)GlcNAc(b1-2)[Neu5Ac(a2-3)Gal(b1-4)GlcNAc(b1-6)]Man(a1-6)[Neu5Ac(a2-3)Gal(b1-4)GlcNAc(b1-2)Man(a1-3)]Man(b1-4)GlcNAc(b1-4)GlcNAc
Summary of the method: as §1

[10] = target: Neu5Ac(a2-3)Gal(b1-4)GlcNAc(b1-2)[Neu5Ac(a2-3)Gal(b1-4)GlcNAc(b1-6)]Man(a1-6)[Neu5Ac(a2-3)Gal(b1-4)GlcNAc(b1-2)Man(a1-3)][GlcNAc(b1-4)]Man(b1-4)GlcNAc(b1-4)GlcNAc
Summary of the method: as §1

[11] = target: Neu5Ac(a2-3)Gal(b1-4)GlcNAc(b1-3)Gal
Summary of the method: as §1

[12] = target: Neu5Ac(a2-3)Gal(b1-4)GlcNAc(b1-3)Gal(b1-3)GlcNAc
Summary of the method: as §1

[13] = target: Neu5Ac(a2-3)Gal(b1-4)GlcNAc(b1-3)Gal(b1-4)GlcNAc
Summary of the method: as §1

[14] = target: Neu5Ac(a2-3)Gal(b1-4)GlcNAc(b1-3)Gal(b1-4)GlcNAc(b1-2)Man(a1-3)[Neu5Ac(a2-3)Gal(b1-4)GlcNAc(b1-3)Gal(b1-4)GlcNAc(b1-2)Man(a1-6)]Man(b1-4)GlcNAc(b1-4)GlcNAc
Summary of the method: as §1

[15] = target: Neu5Ac(a2-3)Gal(b1-4)GlcNAc(b1-3)Gal(b1-4)GlcNAc(b1-3)Gal(b1-4)GlcNAc
Summary of the method: as §1

[16] = target: Neu5Ac(a2-3)Gal(b1-4)GlcNAc(b1-3)Gal(b1-4)GlcNAc(b1-3)Gal(b1-4)GlcNAc(b1-2)Man(a1-3)[Neu5Ac(a2-3)Gal(b1-4)GlcNAc(b1-3)Gal(b1-4)GlcNAc(b1-3)Gal(b1-4)GlcNAc(b1-2)Man(a1-6)]GalNAc
Summary of the method: as §1

[17] = target: Neu5Ac(a2-3)Gal(b1-4)GlcNAc(b1-3)Gal(b1-4)GlcNAc(b1-3)GalNAc
Summary of the method: as §1

[18] = target: Neu5Ac(a2-3)Gal(b1-4)GlcNAc(b1-3)Gal(b1-4)GlcNAc(b1-3)[Neu5Ac(a2-3)Gal(b1-4)GlcNAc(b1-3)Gal(b1-4)GlcNAc(b1-6)]GalNAc
Summary of the method: as §1

[19] = target: Neu5Ac(a2-3)Gal(b1-4)GlcNAc(b1-3)Gal(b1-4)GlcNAc(b1-6)[Gal(b1-3)]GalNAc
Summary of the method: as §1

[20] = target: Neu5Ac(a2-3)Gal(b1-4)GlcNAc(b1-3)Gal(b1-4)[Fuc(a1-3)]GlcNAc
Summary of the method: as §1

[21] = target: Neu5Ac(a2-3)Gal(b1-4)GlcNAc(b1-3)GalNAc
Summary of the method: as §1

[22] = target: Neu5Ac(a2-3)Gal(b1-4)GlcNAc(b1-3)[Neu5Ac(a2-3)Gal(b1-4)GlcNAc(b1-6)]GalNAc
Summary of the method: as §1

[23] = target: Neu5Ac(a2-3)Gal(b1-4)GlcNAc(b1-6)GalNAc
Summary of the method: as §1

[24] = target: Neu5Ac(a2-3)Gal(b1-4)GlcNAc(b1-6)[Gal(b1-3)]GalNAc
Summary of the method: as §1

[25] = target: Neu5Ac(a2-3)Gal(b1-4)GlcNAc(b1-6)[Neu5Ac(a2-3)Gal(b1-3)]GalNAc
Summary of the method: as §1

[26] = target: Neu5Ac(a2-3)Gal(b1-4)GlcNAc6S
Summary of the method: as §1

[27] = target: Neu5Ac(a2-3)Gal(b1-4)[Fuc(a1-3)]GlcNAc
Summary of the method: as §1

[28] = target: Neu5Ac(a2-3)Gal(b1-4)[Fuc(a1-3)]GlcNAc(b1-2)Man
Summary of the method: as §1

[29] = target: Neu5Ac(a2-3)Gal(b1-4)[Fuc(a1-3)]GlcNAc(b1-3)Gal
Summary of the method: as §1

[30] = target: Neu5Ac(a2-3)Gal(b1-4)[Fuc(a1-3)]GlcNAc(b1-3)Gal(b1-4)GlcNAc
Summary of the method: as §1

[31] = target: Neu5Ac(a2-3)Gal(b1-4)[Fuc(a1-3)]GlcNAc(b1-3)Gal(b1-4)[Fuc(a1-3)]GlcNAc(b1-3)Gal(b1-4)[Fuc(a1-3)]GlcNAc
Summary of the method: as §1

[32] = target: Neu5Ac(a2-3)Gal(b1-4)[Fuc(a1-3)]GlcNAc(b1-3)GalNAc
Summary of the method: as §1

[33] = target: Neu5Ac(a2-3)Gal(b1-4)[Fuc(a1-3)]GlcNAc(b1-6)[Gal(b1-3)]GalNAc
Summary of the method: as §1

[34] = target: Neu5Ac(a2-3)Gal(b1-4)[Fuc(a1-3)]GlcNAc(b1-6)[Neu5Ac(a2-3)Gal(b1-3)]GalNAc
Summary of the method: as §1

[35] = target: Neu5Ac(a2-3)Gal(b1-4)[Fuc(a1-3)]GlcNAc6S
Summary of the method: as §1

[36] = target: Neu5Ac(a2-3)Gal6S(b1-4)GlcNAc
Summary of the method: as §1

[37] = target: Neu5Ac(a2-3)Gal6S(b1-4)[Fuc(a1-3)]GlcNAc
Summary of the method: as §1

B1: PX14343G-pdi-535-24-535 (Parabacteroides distasonis) (protein)
chain: LDTVPKDQLAPSTTWQTEADAKGFIVGCYKDLLDGNTLLYLDCGSDIGYNNFPWEGFRPWGDGSLSSSNPGQILYDYKSIRKANTFLENVDKVTFSSDAVKANYVAQAKAIRAYKYFLMNWWYGGVPIISSYSSADEAKVERNTEQEVRDYIAKDLDEALAGIAEAPEARGYIAKGAVLAIKMREALYYGDWQKAKDAAKAIIDLKQYELDPDYTNLFKVSGVDSKEIILADQNIETLDGLGTIGQMYNNVDQGWSSIVPTQNLVDMYEMSDGLTKEESKTYDAKHPFANRDPRMAMTILYPGRDWRGDVLNTLDEKLQDGTVNKNFPTYTDNASKSALTWAKYLDPMDQYGDVWSSGACPIVFRYAEVLLTYAEAANELSGPSDEIYGYLNQIRQRVGMGEVDKAKYGTKDKLRELIRRERTVELAGEGLRRADIVRWQEDGKMLAEKVMNGDLLRVTGTINYGESEPTKRAEITGTAVIETRQFSSRNRYLPIPQTSMDKNPNLKQNPGY
- glycan array binding signal (z-score) (Neu5Ac(a2-3)Gal(b1-4)Glc): -0.095
- glycan array binding signal (z-score) [1]: -0.52
- glycan array binding signal (z-score) [2]: 0.906
- glycan array binding signal (z-score) [3]: -0.311
- glycan array binding signal (z-score) [4]: 0.078
- glycan array binding signal (z-score) [5]: 0.505
- glycan array binding signal (z-score) [6]: -0.159
- glycan array binding signal (z-score) [7]: -0.109
- glycan array binding signal (z-score) [8]: -0.359
- glycan array binding signal (z-score) [9]: -0.952
- glycan array binding signal (z-score) [10]: -0.038
- glycan array binding signal (z-score) [11]: -0.794
- glycan array binding signal (z-score) [12]: -0.163
- glycan array binding signal (z-score) [13]: 0.102
- glycan array binding signal (z-score) [14]: 0.236
- glycan array binding signal (z-score) [15]: -0.9
- glycan array binding signal (z-score) [16]: 2
- glycan array binding signal (z-score) [17]: -0.099
- glycan array binding signal (z-score) [18]: 0.711
- glycan array binding signal (z-score) [19]: 1.55
- glycan array binding signal (z-score) [20]: -0.487
- glycan array binding signal (z-score) [21]: -0.39
- glycan array binding signal (z-score) [22]: 0.038
- glycan array binding signal (z-score) [23]: -0.627
- glycan array binding signal (z-score) [24]: 0.323
- glycan array binding signal (z-score) [25]: -0.381
- glycan array binding signal (z-score) [26]: -0.289
- glycan array binding signal (z-score) [27]: -0.975
- glycan array binding signal (z-score) [28]: -1.02
- glycan array binding signal (z-score) [29]: -0.539
- glycan array binding signal (z-score) [30]: 0.199
- glycan array binding signal (z-score) [31]: 0.205
- glycan array binding signal (z-score) [32]: 0.588
- glycan array binding signal (z-score) [33]: 0.282
- glycan array binding signal (z-score) [34]: 1.44
- glycan array binding signal (z-score) [35]: -0.736
- glycan array binding signal (z-score) [36]: -1.29
- glycan array binding signal (z-score) [37]: -1.06

— the supplement of paper PMC8728848
